Test results: paper PMC4077574

Substrate: PIF conjugated to agarose resin (PIF-resin affinity column)
Assay: affinity purification with mass spectrometry; only the target purified

B1: 14-3-3 protein gamma (protein, UniProt P61982 1-247)
chain: MVDREQLVQKARLAEQAERYDDMAAAMKNVTELNEPLSNEERNLLSVAYKNVVGARRSSWRVISSIEQKTSADGNEKKIEMVRAYREKIEKELEAVCQDVLSLLDNYLIKNCSETQYESKVFYLKMKGDYYRYLAEVATGEKRATVVESSEKAYSEAHEISKEHMQPTHPIRLGLALNYSVFYYEIQNAPEQACHLAKTAFDDAIAELDTLNEDSYKDSTLIMQLLRDNLTLWTSDQQDDDGGEGNN
In the case of B1, the binding is reported as “binds”.

These are yes or no findings as the source states them, for the method shown. Binding seen in cells or lysates may run through a third protein. These calls come from enrichment with a bait or labelling near it, and not all partners need be listed.
